This assay addresses T1, V5-PR36 (proline-arginine dipeptide repeat protein, 36 repeats).
T1 sequence: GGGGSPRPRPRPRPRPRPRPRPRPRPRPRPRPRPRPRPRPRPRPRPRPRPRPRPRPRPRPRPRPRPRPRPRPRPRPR
Nature of the assay: co-IP.

Results are given in words; binding and its absence hold for the method and conditions named. In cells and extracts the contact can be indirect. Some entries that bind do so weakly or less than the wild type. Tags and fused reporters may be left off the sequences shown.

B1: GFP-tagged Staufen (protein, UniProt P25159 1-1026)
chain: MQHNVHAARPAPHIRAAHHHSHSHAHMHLHPGMEQHLGPSLQQQQQPPPPPQQPPHRDLHARLNHHHLHAQQQQQQQTSSNQAGAVAAAGAAYHHGNINSNSGSNISSNSNQMQKIRQQHQHLSSSNGLLGNQPPGPPPQAFNPLAGNPAALAYNQLPPHPPHHMAAHLGSYAAPPPHYYMSQAKPAKYNHYGSNANSNSGSNNSNSNYAPKAILQNTYRNQKVVVPPVVQEVTPVPEPPVTTNNATTNSTSNSTVIASEPVTQEDTSQKPETRQEPASADDHVSTGNIDATGALSNEDTSSSGRGGKDKTPMCLVNELARYNKITHQYRLTEERGPAHCKTFTVTLMLGDEEYSADGFKIKKAQHLAASKAIEETMYKHPPPKIRRSEEGGPMRTHITPTVELNALAMKLGQRTFYLLDPTQIPPTDSIVPPEFAGGHLLTAPGPGMPQPPPPPAYALRQRLGNGFVPIPSQPMHPHFFHGPGQRPFPPKFPSRFALPPPLGAHVHHGPNGPFPSVPTPPSKITLFVGKQKFVGIGRTLQQAKHDAAARALQVLKTQAISASEEALEDSMDEGDKKSPISQVHEIGIKRNMTVHFKVLREEGPAHMKNFITACIVGSIVTEGEGNGKKVSKKRAAEKMLVELQKLPPLTPTKQTPLKRIKVKTPGKSGAAAREGSVVSGTDGPTQTGKPERRKRLNPPKDKLIDMDDADNPITKLIQLQQTRKEKEPIFELIAKNGNETARRREFVMEVSASGSTARGTGNSKKLAKRNAAQALFELLEAVQVTPTNETQSSEECSTSATMSAVTAPAVEATAEGKVPMVATPVGPMPGILILRQNKKPAKKRDQIVIVKSNVESKEEEANKEVAVAAEENSNNSANSGDSSNSSSGDSQATEAASESALNTSTGSNTSGVSSNSSNVGANTDGNNHAESKNNTESSSNSTSNTQSAGVHMKEQLLYLSKLLDFEVNFSDYPKGNHNEFLTIVTLSTHPPQICHGVGKSSEESQNDAASNALKILSKLGLNNAMK
Regarding B1, the binding entry is reported as “binds”.
